Data on 42 sequences can be found in publication PMC7819943, “Rice protein-binding microarrays: a tool to detect cis-acting elements near promoter regions in rice”.

Some of the results follow.

In the assay the target is T1, OsSMF1 (Oryza sativa, UniProt Q6ZLB0 1-436).
T1 sequence: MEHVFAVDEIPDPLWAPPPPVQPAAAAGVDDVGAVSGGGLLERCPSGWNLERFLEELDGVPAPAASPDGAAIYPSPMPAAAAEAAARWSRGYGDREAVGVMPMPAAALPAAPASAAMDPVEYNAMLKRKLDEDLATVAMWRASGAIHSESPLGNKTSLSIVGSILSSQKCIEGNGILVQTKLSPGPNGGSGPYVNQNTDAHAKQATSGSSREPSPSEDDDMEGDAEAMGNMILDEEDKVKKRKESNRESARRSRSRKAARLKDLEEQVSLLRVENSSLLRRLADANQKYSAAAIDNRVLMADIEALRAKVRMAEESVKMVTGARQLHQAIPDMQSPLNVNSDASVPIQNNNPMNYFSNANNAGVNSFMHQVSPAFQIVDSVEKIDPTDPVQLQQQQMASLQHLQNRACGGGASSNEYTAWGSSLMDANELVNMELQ
Kind of assay: protein-binding microarray (RPBM); PBS, 2% BSA, 51.3 ng/ul salmon testes DNA, 50 uM zinc acetate, 200 nM TF, 25 C, 1 h; high values mean tight binding. The conditions noted are these: protein: recombinant; tags: N-terminal polyhistidine and DsRed monomer fusion (pET32a); chain copies: 2; label: CyDye5-dUTP incorporated in the synthesized complementary strand; 3' TTTTT single-stranded linker to array surface; dsDNA, one strand shown. The method, boiled down:
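Polyhistidine-tagged DsRed fusions of transcription factors, joined at the N-terminus, were expressed in E. coli BL21-CodonPlus and isolated on Ni–NTA. They were incubated at 200 nM for 1 h at 25 °C on a custom Agilent array, double-stranded and BSA-blocked, in PBS with 2% BSA, salmon testes DNA and 50 µM zinc acetate. The binding signal is per-feature fluorescence intensity (arbitrary units) read on an Axon 4000B scanner after washing.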
Consider “TCCTTAAATATCGGGCAATCATCGTCACACACAGTGACAGCGGAGTCACCTAGTGCAG”, for which the binding signal is 4610 fluorescence intensity (a.u.).

With “TTACGCGCAATCGCATCGCTACCACGAAAACTCCACAAGACGGAGTCACCTAGTGCAG”, the binding signal was 3160 fluorescence intensity (a.u.).

Consider “AGATAGTCATCTAACCTAGGGTACACGTAGATCCTCACAACGGAGTCACCTAGTGCAG”, for which the binding signal is 7830 fluorescence intensity (a.u.).

For “CACATGAACTCACTGAGTCACTGGGTGGTTTGTTGCATTGCGGAGTCACCTAGTGCAG”, the binding signal is 6080 fluorescence intensity (a.u.).

For “ATTTTGACTGATGTGACGTTTGCGTGGCTGGTTTGATTAGCGGAGTCACCTAGTGCAG”, the binding signal is 4770 fluorescence intensity (a.u.).

“GCACACGATACGACACGTCCAGGTCAGGAGAGGCTCCAACCGGAGTCACCTAGTGCAG”: the binding signal was 20700 fluorescence intensity (a.u.).

For “ACTTGCGCGCGTCGTTACCCGTTTTGCCCTGACGCGTGCACGGAGTCACCTAGTGCAG”, the binding signal is 5170 fluorescence intensity (a.u.).

Consider “ACGACATTAATGCTTTCCCCACATTTCTCTCTCAGACTCTCGGAGTCACCTAGTGCAG”, for which the binding signal is 17400 fluorescence intensity (a.u.).

In the case of “ACCCGGTTGGCTGTTGCCAGCTACCACTTCGACCTGAGCGCGGAGTCACCTAGTGCAG”, the binding signal was 3520 fluorescence intensity (a.u.).

With “CGCCAGCCCAGCCGCTGTGACGTGCTCACTGTTTCGGCGGCGGAGTCACCTAGTGCAG”, the binding signal is 7190 fluorescence intensity (a.u.).

With “TTTCATGGATAACACGTGCACTACATTCTTGCCTGTTCCACGGAGTCACCTAGTGCAG”, the binding signal was 4800 fluorescence intensity (a.u.).

For the sequence “CCAGCCGCCATCCCGGCTTTGACGACCACCATCCGGAGCACGGAGTCACCTAGTGCAG”, the binding signal is 31500 fluorescence intensity (a.u.).

“GAGCCGGGAGGGACTTGTGGGGCCCACGTGGGCCCACCAACGGAGTCACCTAGTGCAG”: the binding signal was 4150 fluorescence intensity (a.u.).

Consider “GCCAGCACCTACTGGCCCCACATCCAGGGGCATTCATATGCGGAGTCACCTAGTGCAG”, for which the binding signal is 4500 fluorescence intensity (a.u.).

“ATGGCTTCAGGGGTGCAGCTGGTAAGAGAAGTGATGTCAGCGGAGTCACCTAGTGCAG”: the binding signal was 5570 fluorescence intensity (a.u.).

As to “ATCGACCATCCACACGCACGCACTTATACAATTTGGTTTCCGGAGTCACCTAGTGCAG”, the binding signal was 3260 fluorescence intensity (a.u.).

In the case of “TGGTCGGCACGGAGCGAGCCACTGGCTCCTGCCACCCGCGCGGAGTCACCTAGTGCAG”, the binding signal is 18000 fluorescence intensity (a.u.).

For “ACGCACCGGACCGTGCCGTGCCAGCCCACGTGCCGCACTCCGGAGTCACCTAGTGCAG”, the binding signal is 3980 fluorescence intensity (a.u.).

As to “GGCAACGGCGTCAACATCTAGGGAAGGAGGGAGTAGTATACGGAGTCACCTAGTGCAG”, the binding signal was 29500 fluorescence intensity (a.u.).

As to “GGTGGCGCCTACGTGGCTAGTTTGACTTGGTCTTCATCTACGGAGTCACCTAGTGCAG”, the binding signal is 16600 fluorescence intensity (a.u.).

For “GTCGCGTTGCAAGCCACCAGTCAGCAAGTCTGCTGTCACCCGGAGTCACCTAGTGCAG”, the binding signal is 3830 fluorescence intensity (a.u.).

On to “AGGAGAGAAAATTATCATCCCACCCTGGCGCCTCCTCTCCCGGAGTCACCTAGTGCAG”, for which the binding signal was 5120 fluorescence intensity (a.u.).

Regarding “TTGTTGAGTTCGGTGCCCCATATCCCTCAATCTCGGGTGCCGGAGTCACCTAGTGCAG”, the binding signal was 4530 fluorescence intensity (a.u.).

Regarding “TCCAGCGGTGGTTGAACATGTCTTTTGTTGTGAATATTTACGGAGTCACCTAGTGCAG”, the binding signal was 3260 fluorescence intensity (a.u.).

With “GATGGAGGCGATGTAAACACAGATGACGCCGACGCCTGCCCGGAGTCACCTAGTGCAG”, the binding signal was 4730 fluorescence intensity (a.u.).

For “CACGGTGGTCCTGCCTTGTGCCACCATTGCAAGGGGCTCTCGGAGTCACCTAGTGCAG”, the binding signal is 3770 fluorescence intensity (a.u.).

For “CAATCTGCCACGCGTCATCGATCCGTCCCCTCTTCCGCTTCGGAGTCACCTAGTGCAG”, the binding signal was 19400 fluorescence intensity (a.u.).

Turning to “CAAGTAATAAGTAGTAACCGGCTACGTGGTTGTGCCGTTACGGAGTCACCTAGTGCAG”, the binding signal is 4100 fluorescence intensity (a.u.).

For “AGTAGTGAGGTTGAGGCATAAGTACATTGAATTGAATTGACGGAGTCACCTAGTGCAG”, the binding signal is 44100 fluorescence intensity (a.u.).

On to “ACTCGTCGAATTCTCCACACGCGTGAATTCATTTCACCACCGGAGTCACCTAGTGCAG”, for which the binding signal was 3350 fluorescence intensity (a.u.).

Consider “GTGCAGTACCTTCCATACCACCTCAAGGATACTAAAATCACGGAGTCACCTAGTGCAG”, for which the binding signal is 26400 fluorescence intensity (a.u.).

As to “GCCCGCGACGTCACGCCCATGTCACTTTCGTGCAATGGTTCGGAGTCACCTAGTGCAG”, the binding signal was 8610 fluorescence intensity (a.u.).

With “CGAGGTTGCCCCTCCCCTCTCCTACGTGGTCGTGCCCCAACGGAGTCACCTAGTGCAG”, the binding signal was 5410 fluorescence intensity (a.u.).

As for “CAATTTAAGACCGCTGTGTCACTAATGTAATCGATCAACTCGGAGTCACCTAGTGCAG”, the binding signal is 4990 fluorescence intensity (a.u.).

For the sequence “CCCCGCATAAACACTCTCACTGACGTGTGGGCCCCGCAGACGGAGTCACCTAGTGCAG”, the binding signal was 7980 fluorescence intensity (a.u.).

“GTACCTCCACCTGTGCCGCCCGTTCGCAGCAACGCGGCGGCGGAGTCACCTAGTGCAG”: the binding signal is 27400 fluorescence intensity (a.u.).

“AGGTGTACTTCTACGTGTACTACGTCGTTAAGGTCCTCGCCGGAGTCACCTAGTGCAG”: the binding signal was 34900 fluorescence intensity (a.u.).

With “TCGATCATACATATCGATCTGCAGCTAGTTCTCGCACGAGCGGAGTCACCTAGTGCAG”, the binding signal was 4120 fluorescence intensity (a.u.).

Take “AGCGAAAGAATGTTTCAGTTCATTGCAACATTAGATCTATCGGAGTCACCTAGTGCAG”: the binding signal was 33700 fluorescence intensity (a.u.).

On to “GCACACTCTAATTTCCTTTAGGCTGCGTTTCTAGTGTAGTCGGAGTCACCTAGTGCAG”, for which the binding signal was 28400 fluorescence intensity (a.u.).

On to “TGTACATTGTTTGAACTAATCAGTAATCATCACAGTGGTTCGGAGTCACCTAGTGCAG”, for which the binding signal was 3160 fluorescence intensity (a.u.).

Take “GTTAGCACTGGAATCTTTACGTGTGACATGTGTAAAAGTTCGGAGTCACCTAGTGCAG”: the binding signal was 3380 fluorescence intensity (a.u.).
